In US8106194B2, “Pyrrolopyrimidine and pyrrolotriazine derivatives” (Taisho Pharmaceutical Co., Ltd., priority 2004, dated 2012):
Some results were stated once for a whole list of compounds, not compound by compound.

Target: T1, CRF receptor (Macaca mulatta, UniProt Q76LL8)
T1 sequence (Q76LL8 24-415): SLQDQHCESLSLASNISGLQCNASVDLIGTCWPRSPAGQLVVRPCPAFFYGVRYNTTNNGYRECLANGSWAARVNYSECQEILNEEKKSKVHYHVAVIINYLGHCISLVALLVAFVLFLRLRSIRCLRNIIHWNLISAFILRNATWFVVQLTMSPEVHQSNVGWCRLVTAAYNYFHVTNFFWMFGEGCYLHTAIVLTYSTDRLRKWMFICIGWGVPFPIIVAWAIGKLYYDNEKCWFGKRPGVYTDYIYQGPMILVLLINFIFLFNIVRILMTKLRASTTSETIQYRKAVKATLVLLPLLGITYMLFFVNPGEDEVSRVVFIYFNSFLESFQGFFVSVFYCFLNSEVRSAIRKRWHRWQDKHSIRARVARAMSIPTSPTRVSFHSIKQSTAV
Experiment: CRF receptor binding test
Settings: read-out: IC50 (concentration of the test drug at which binding of 125I-CRF is inhibited by 50%); monkey amygdala membranes, 125I-CRF (0.2 nM), 25° C. for 2 hours

SMILES: CCCC(CCC)Nc1cc(C)nc2c(-c3ccc(Br)cc3Br)cc(C(N)=O)n12 [Compound 1-005]
- IC50: ≤ 100 nM
